Assay results from patent publication US20130303439A1, “CHIMERIC PEPTIDES INCLUDING A PENETRATING PEPTIDE AND A BINDING DOMAIN OF PP2A CATALYTIC SUBUNIT TO CASPASE-9” (Institut National de la Sante et de la Recherche Medicale …, priority 2010, published 2013).
These are yes or no findings as the source states them, for the method shown. For some of these results: In cells and extracts the contact can be indirect. Some results given as binding are weak or reduced against the parent protein; the word gives no strength. For some of these results: Tags and fused reporters may be left off the sequences shown.

The chains behind the UniProt entries cited, without tags or fusion partners.
UniProt P63330: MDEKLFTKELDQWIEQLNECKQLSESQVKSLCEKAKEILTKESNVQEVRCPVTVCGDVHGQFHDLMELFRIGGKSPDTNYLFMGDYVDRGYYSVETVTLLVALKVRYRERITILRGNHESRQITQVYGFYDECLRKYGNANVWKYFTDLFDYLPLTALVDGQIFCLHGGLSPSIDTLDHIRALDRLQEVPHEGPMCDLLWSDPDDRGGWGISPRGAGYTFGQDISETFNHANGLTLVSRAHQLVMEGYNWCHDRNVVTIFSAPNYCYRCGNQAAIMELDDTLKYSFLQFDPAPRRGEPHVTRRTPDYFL
UniProt P55211: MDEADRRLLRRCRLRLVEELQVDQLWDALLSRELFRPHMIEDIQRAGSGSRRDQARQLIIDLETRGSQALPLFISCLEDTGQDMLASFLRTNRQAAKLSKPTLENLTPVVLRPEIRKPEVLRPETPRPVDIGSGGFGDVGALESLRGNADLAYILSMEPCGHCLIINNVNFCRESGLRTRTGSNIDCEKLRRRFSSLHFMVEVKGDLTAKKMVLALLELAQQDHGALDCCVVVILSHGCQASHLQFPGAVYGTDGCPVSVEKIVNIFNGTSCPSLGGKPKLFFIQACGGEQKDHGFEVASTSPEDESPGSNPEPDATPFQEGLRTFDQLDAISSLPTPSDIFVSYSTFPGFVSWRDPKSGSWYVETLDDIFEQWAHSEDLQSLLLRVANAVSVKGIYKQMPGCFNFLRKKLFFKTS

Assays:
[1] = target: PP2Ac (catalytic subunit of PP2A) from lysate of IL-2-stimulated murine TS1αβ cells (mouse) (UniProt P63330); test: pull-down from IL-2-stimulated TS1αβ cell lysate with biotinylated peptide on streptavidin beads, Western blot
[2] = target: purified human caspase-9 (human) (UniProt P55211); test: cellulose-bound peptide spot array incubated with purified caspase-9, anti-caspase-9 antibody, ECL

| Binder | binding [1] | binding [2] |
| --- | --- | --- |
| YIETLDGILEQWARSEDL (biotinylated (position not given)) [C9 peptide (mouse caspase-9 aa 401-418, PP2Ac binding domain)] | binds |  |
| VKKKKIKREIKIYIETLDGILEQWARSEDL (biotinylated (position not given)) [DPT-C9 (fusion of DPT-sh1 shuttle and C9 sequence)] | binds |  |
| DTLDHIRALDRL (bound to an amino-derived cellulose membrane (spot synthesis)) |  | binds |
| LDHIRALDRLQE (bound to an amino-derived cellulose membrane (spot synthesis)) |  | binds |
| HIRALDRLQEVP (bound to an amino-derived cellulose membrane (spot synthesis)) |  | binds |
| RALDRLQEVPHE (bound to an amino-derived cellulose membrane (spot synthesis)) |  | binds |
| LDRLQEVPHEGP (bound to an amino-derived cellulose membrane (spot synthesis)) |  | binds |
